# Article PMC5119889
# Amino acid sequences for entries named in this document (tags omitted). Residues count along the entry.
# UniProt Q9BVA1, residues 390-445: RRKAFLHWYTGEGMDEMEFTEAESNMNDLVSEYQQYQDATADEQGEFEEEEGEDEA
# UniProt Q8BRK8: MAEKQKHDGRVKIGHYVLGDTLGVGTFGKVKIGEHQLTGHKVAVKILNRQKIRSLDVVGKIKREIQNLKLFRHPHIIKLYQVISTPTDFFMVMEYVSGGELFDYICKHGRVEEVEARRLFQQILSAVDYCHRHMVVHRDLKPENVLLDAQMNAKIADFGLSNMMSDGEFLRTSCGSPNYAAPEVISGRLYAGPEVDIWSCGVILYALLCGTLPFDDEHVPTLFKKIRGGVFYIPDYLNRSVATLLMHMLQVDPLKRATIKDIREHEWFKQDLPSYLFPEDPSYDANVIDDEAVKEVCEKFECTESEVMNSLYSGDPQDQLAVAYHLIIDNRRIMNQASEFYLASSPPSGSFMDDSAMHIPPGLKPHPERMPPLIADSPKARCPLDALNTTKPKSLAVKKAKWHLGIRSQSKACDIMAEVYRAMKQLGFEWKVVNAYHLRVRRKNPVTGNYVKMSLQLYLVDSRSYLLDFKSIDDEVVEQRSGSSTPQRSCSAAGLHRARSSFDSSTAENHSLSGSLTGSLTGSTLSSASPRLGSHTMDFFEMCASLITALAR
# No constants are given. Whether binding was seen depends on the method and setting. For part of these data: Binding seen in cells or lysates may run through a third protein. Some results given as binding are weak or reduced against the parent protein; the word gives no strength. Sequences can lack the tags named with a protein.
# T1: GST-GIV-NT WT (aa 1-440) (human) (UniProt Q3V6T2)
# T1 sequence: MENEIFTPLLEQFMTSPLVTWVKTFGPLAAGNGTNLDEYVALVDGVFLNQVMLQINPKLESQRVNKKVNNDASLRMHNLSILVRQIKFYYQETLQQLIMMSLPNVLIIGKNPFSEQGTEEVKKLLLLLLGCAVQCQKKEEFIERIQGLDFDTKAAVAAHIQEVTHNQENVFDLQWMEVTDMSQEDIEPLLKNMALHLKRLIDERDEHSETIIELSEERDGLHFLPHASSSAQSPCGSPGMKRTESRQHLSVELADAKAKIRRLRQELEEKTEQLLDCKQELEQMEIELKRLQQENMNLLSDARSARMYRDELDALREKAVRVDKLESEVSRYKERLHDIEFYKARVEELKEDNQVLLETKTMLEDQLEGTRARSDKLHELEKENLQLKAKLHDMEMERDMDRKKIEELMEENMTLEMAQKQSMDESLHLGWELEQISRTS
# Experiments:
# [1] = target: T1, GST-GIV-NT WT (aa 1-440) (human); assay: pull-down; purified GST-GIV-NT (WT, SA, SD) or GST alone (5 µg) immobilized on glutathione-Sepharose beads; Cos7 lysates (~250 µg; with or without myc-AMPKα2) added, 4 hr at 4°C, 50 mM Tris-HCl pH 7.4, 100 mM NaCl, 0.4% NP-40; immunoblot; only the target purified
# [2] = target: GST tagged carboxyl terminus of human β2B-tubulin (aa 390-445) (human) (UniProt Q9BVA1); assay: pull-down; GST-α- or β-Tubulin-CT immobilized on glutathione beads from bacterial lysates, washed, incubated at 4°C with purified His-GIV-NT phosphorylated (+) or not (-) in vitro with recombinant AMPK heterotrimers; immunoblot anti-His; both purified
binding [1],binding [2],Molecule
binds,–,myc-tagged wild-type mouse AMPKα2 (from UniProt Q8BRK8 1-552) (enzyme)
–,no binding,"His-GIV-NT WT (aa 1-440), not phosphorylated (domain or fragment, UniProt Q3V6T2 1-440) MENEIFTPLLEQFMTSPLVTWVKTFGPLAAGNGTNLDEYVALVDGVFLNQVMLQINPKLESQRVNKKVNNDASLRMHNLSILVRQIKFYYQETLQQLIMMSLPNVLIIGKNPFSEQGTEEVKKLLLLLLGCAVQCQKKEEFIERIQGLDFDTKAAVAAHIQEVTHNQENVFDLQWMEVTDMSQEDIEPLLKNMALHLKRLIDERDEHSETIIELSEERDGLHFLPHASSSAQSPCGSPGMKRTESRQHLSVELADAKAKIRRLRQELEEKTEQLLDCKQELEQMEIELKRLQQENMNLLSDARSARMYRDELDALREKAVRVDKLESEVSRYKERLHDIEFYKARVEELKEDNQVLLETKTMLEDQLEGTRARSDKLHELEKENLQLKAKLHDMEMERDMDRKKIEELMEENMTLEMAQKQSMDESLHLGWELEQISRTS"
–,no binding,"His-GIV-NT WT (aa 1-440), phosphorylated in vitro by AMPK at S245 (domain or fragment, UniProt Q3V6T2 1-440, phosphoserine at 245 (phosphorylated in vitro by recombinant AMPK heterotrimers)) MENEIFTPLLEQFMTSPLVTWVKTFGPLAAGNGTNLDEYVALVDGVFLNQVMLQINPKLESQRVNKKVNNDASLRMHNLSILVRQIKFYYQETLQQLIMMSLPNVLIIGKNPFSEQGTEEVKKLLLLLLGCAVQCQKKEEFIERIQGLDFDTKAAVAAHIQEVTHNQENVFDLQWMEVTDMSQEDIEPLLKNMALHLKRLIDERDEHSETIIELSEERDGLHFLPHASSSAQSPCGSPGMKRTESRQHLSVELADAKAKIRRLRQELEEKTEQLLDCKQELEQMEIELKRLQQENMNLLSDARSARMYRDELDALREKAVRVDKLESEVSRYKERLHDIEFYKARVEELKEDNQVLLETKTMLEDQLEGTRARSDKLHELEKENLQLKAKLHDMEMERDMDRKKIEELMEENMTLEMAQKQSMDESLHLGWELEQISRTS"
